We go through one sequence from publication PMC5660450.

The chains behind the UniProt entries cited, without tags or fusion partners.
UniProt P70315: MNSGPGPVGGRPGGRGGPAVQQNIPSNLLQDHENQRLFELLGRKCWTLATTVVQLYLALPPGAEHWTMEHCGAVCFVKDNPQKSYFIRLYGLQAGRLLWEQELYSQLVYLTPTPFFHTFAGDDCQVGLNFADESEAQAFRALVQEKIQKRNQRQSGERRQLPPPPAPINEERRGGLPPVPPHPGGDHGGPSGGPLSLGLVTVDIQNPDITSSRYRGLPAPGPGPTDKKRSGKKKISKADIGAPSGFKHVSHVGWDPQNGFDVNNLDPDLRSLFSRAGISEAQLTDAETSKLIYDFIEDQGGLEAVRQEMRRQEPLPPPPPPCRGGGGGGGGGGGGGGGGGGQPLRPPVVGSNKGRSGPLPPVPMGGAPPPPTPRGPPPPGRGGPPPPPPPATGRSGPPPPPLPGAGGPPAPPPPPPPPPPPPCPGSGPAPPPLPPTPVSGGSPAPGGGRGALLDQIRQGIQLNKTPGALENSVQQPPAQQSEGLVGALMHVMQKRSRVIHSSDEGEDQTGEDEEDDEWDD
UniProt Q00417: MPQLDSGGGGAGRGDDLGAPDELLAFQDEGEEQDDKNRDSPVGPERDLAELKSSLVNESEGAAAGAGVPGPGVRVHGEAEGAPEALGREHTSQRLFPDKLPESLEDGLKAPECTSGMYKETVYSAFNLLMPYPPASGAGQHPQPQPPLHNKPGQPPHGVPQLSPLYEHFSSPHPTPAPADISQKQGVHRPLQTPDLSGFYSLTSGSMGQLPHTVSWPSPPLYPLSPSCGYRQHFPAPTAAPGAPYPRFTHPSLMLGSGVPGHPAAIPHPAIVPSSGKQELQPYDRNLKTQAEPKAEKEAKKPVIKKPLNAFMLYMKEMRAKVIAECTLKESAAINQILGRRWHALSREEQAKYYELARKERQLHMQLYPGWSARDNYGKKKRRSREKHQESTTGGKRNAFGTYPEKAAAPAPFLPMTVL

For this test, the target named is Wiskott–Aldrich syndrome protein (mouse (endogenous in thymocytes)) (UniProt P70315). In words: co-IP; WASp immunoprecipitated with the WASp F-8 Ab from mouse thymocyte nuclear extracts, protein G-Sepharose, 10 h + 4 h at 4 °C, three washes in cold PBS; western blot for TCF1; mouse IgG2A as isotype control IP. In general terms: In western blotting, separated proteins are transferred to a membrane and probed.

These are yes or no findings as the source states them, for the method shown. In cells and extracts the contact can be indirect. Some entries that bind do so weakly or less than the wild type.

Take “T cell factor 1 (from UniProt Q00417 1-419)”: the binding result was “binds”.
